Assay results: paper PMC13659687 (Food Chemistry: Molecular Sciences, 2026)

Test: peptide made by a vendor
Conditions: whole synthesis, 220 nm

PEPTIDE1{K.L.I.M.V}$$$$V2.0
purity (crude or final not stated): 95.7%

Strings that start with PEPTIDE1 are HELM notation: dots part the residues, brackets hold end groups and non-standard residues.
